Data from the supplement of paper PMC7646827.
Where a name gives a salt, the structure may show the parent alone. Repeats are few or missing, and single values can be far off.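 All cells are established human bladder cancer lines, one of them grown from a patient-derived xenograft. Viability was read by a luminescent ATP assay as percent inhibition versus vehicle over a seven-point dilution series; the paper calls scores above 59 very active, 30–59 active, 21–29 semi-active, 9–20 low active and below 9 inactive.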

Assays:
Assay in all cases: drug sensitivity score DSS3 (score 0-100); higher = more sensitive; extreme values may be limits of the assay
Details in all cases: culture: 3D, ultra-low attachment; treatment time: 5 days
5637 = system: 5637
BC8149 = system: BC8149
J82 = system: J82
SCaBER = system: SCaBER
SW780 = system: SW780
T-24 = system: T-24
TCCSUP = system: TCCSUP
UM-UC-12 = system: UM-UC-12
UM-UC-14 = system: UM-UC-14
UM-UC-15 = system: UM-UC-15
UM-UC-17 = system: UM-UC-17
UM-UC-18 = system: UM-UC-18
UM-UC-1 = system: UM-UC-1
UM-UC-3 = system: UM-UC-3
UM-UC-5 = system: UM-UC-5
UM-UC-6 = system: UM-UC-6
UM-UC-9 = system: UM-UC-9

SMILES	drug sensitivity score DSS3 5637	drug sensitivity score DSS3 (BC8149)	drug sensitivity score DSS3 (J82)	drug sensitivity score DSS3 (SCaBER)	drug sensitivity score DSS3 (SW780)	drug sensitivity score DSS3 (T-24)	drug sensitivity score DSS3 (TCCSUP)	drug sensitivity score DSS3 (UM-UC-12)	drug sensitivity score DSS3 (UM-UC-14)	drug sensitivity score DSS3 (UM-UC-15)	drug sensitivity score DSS3 (UM-UC-17)	drug sensitivity score DSS3 (UM-UC-18)	drug sensitivity score DSS3 (UM-UC-1)	drug sensitivity score DSS3 (UM-UC-3)	drug sensitivity score DSS3 (UM-UC-5)	drug sensitivity score DSS3 (UM-UC-6)	drug sensitivity score DSS3 (UM-UC-9)
C[C@H](NC(=O)Cc1cc(F)cc(F)c1)C(=O)N[C@H](C(=O)OC(C)(C)C)c1ccccc1 [DAPT (GSI-IX)] (max dose 10000 nM)	4	6.22	0	1.22	0	0.971	5.24	0.585	1.51	0	0.647	0.995	2.63	1	0.217	0	2.33
COc1cccc2cc(-c3nc([C@H]4CC[C@H](C(=O)O)CC4)n4ncnc(N)c34)[nH]c12 [OSI-027] (max dose 10000 nM)	7.02	24.3	2.9	5.98	1.04	0	10.9	0	6.84	0	0	4.16	4.36	0	14	10.1	3.09
COc1cc2c(cc1O)CC[C@@H]1[C@@H]2CC[C@]2(C)[C@@H](O)CC[C@@H]12 [2-Methoxyestradiol (2-MeOE2)] (max dose 10000 nM)	20.1	13.5	0.451	0.943	0	0	19.1	10	0.0912	0	3.61	5.18	4.62	23.1	13.9	0.211	4.19
C[C@H](Nc1ncnc2[nH]cnc12)c1cc2ccc(F)cc2nc1-c1ccccn1 [AMG319] (max dose 10000 nM)	2.17	0	3.33	4.93	4.17	17	3.33	0.632	1.11	0	0.223	0	1.29	6.81	1.28	0.846	0
COC1=CC(c2cc3ccccc3[nH]2)=N/C1=C\c1[nH]c(C)cc1C [Obatoclax Mesylate (GX15-070)] (max dose 10000 nM)	4.61	6.61	1.91	6.52	0	0.855	2.56	6.98	0	4.67	1	1.3	0	3.48	7.85	5.35	0
Cn1cc(-c2ccc3c(c2)CCN3C(=O)Cc2cccc(C(F)(F)F)c2)c2c(N)ncnc21 (max dose 10000 nM)	0	0	0	0	0	0	0.503	0.296	0.569	7.55	0	0	0	0	0	0	0
O=C1NCCCc2c1oc1ccc(O)cc21 (max dose 10000 nM)	0	0	0	0	0	0	0.0227	1.08	0	10.8	0	0.744	0	4.77	0	0	0
COCC[n+]1c2c(n(Cc3cnccn3)c1C)C(=O)c1ccccc1C2=O [YM155 (Sepantronium Bromide)] (max dose 10000 nM)	86.2	73.1	2.75	30.5	45.2	14.8	83.4	70.7	5.02	57.5	56.5	49.2	65.1	82.6	69	54	64.1
CCCS(=O)(=O)Nc1ccc(F)c(C(=O)c2c[nH]c3ncc(-c4ccc(Cl)cc4)cc23)c1F [Vemurafenib (PLX4032, RG7204)] (max dose 10000 nM)	2.24	1.37	0	0	0	0	0.121	0	2.24	0	0	2.58	0.0831	0.778	0	1.44	0
O=C(NC[C@H]1CN(c2ccc(N3CCOCC3=O)cc2)C(=O)O1)c1ccc(Cl)s1 [Rivaroxaban] (max dose 10000 nM)	0	0	0	0	0	0	0	0	0	0.379	0	0	0	0	0	0	0
COc1ccc(CCNCc2ccc(OCc3ccc(Cl)nc3)c(OC)c2)cc1OC [SBE 13 HCl] (max dose 10000 nM)	0	0	0	0	0	0	0	0.904	0	0	0	0	0	0	0	0.00499	0.16
CN(C)CCCn1cc(C2=C(c3c[nH]c4ccccc34)C(=O)NC2=O)c2ccccc21 (max dose 10000 nM)	0	0	0	0	0	0	0	0	0	4.31	0	0	0	0	1.06	0	0
O=C(O)CSc1cc(NS(=O)(=O)c2ccc(Br)cc2)c2ccccc2c1O [UMI-77] (max dose 10000 nM)	0	0	0	0	0	0	0	0	0.159	0	0	0	0	0	0	0.955	0
CC1(C)CC(=O)c2c(C(F)(F)F)nn(-c3ccc(C(N)=O)c(N[C@H]4CC[C@H](O)CC4)c3)c2C1 (max dose 10000 nM)	53.8	58.7	13.5	42.9	3.35	27.6	48.5	44.1	34.6	27.4	26.9	38.1	28.5	55.4	27.2	23.1	22.3
CS(=O)(=O)N1CCc2c(-c3cnc(N)nc3)nc(N3CCOCC3)nc21 (max dose 10000 nM)	20	18.9	3.33	16.5	10	8.87	26.8	16.4	30.1	0	19.4	9.65	23	16.8	18.6	22.2	0
N#Cc1ccc(C(c2ccc(C#N)cc2)n2cncn2)cc1 [Letrozole] (max dose 10000 nM)	12.8	8.85	0	2.46	0	1.73	11.3	4.26	1.25	0	0.0345	3.67	1.34	15.2	5.87	0.197	2.69
C[C@]12CCC(=O)C=C1CC[C@@H]1[C@@H]2[C@@H](O)C[C@@]2(C)[C@H]1CC[C@]2(O)C(=O)CO [Hydrocortisone] (max dose 10000 nM)	1.73	0	0	0	0	0	0	0.489	0	0	0	0.159	0	4.7	0	0	0
CC(O)(CS(=O)(=O)c1ccc(F)cc1)C(=O)Nc1ccc(C#N)c(C(F)(F)F)c1 (stereo not drawn) [Bicalutamide] (max dose 10000 nM)	0	0	0	0.467	0	0	0	0	0	0	0	0	0	0	0	0	0
CC(c1cc2ccccc2s1)N(O)C(N)=O (stereo not drawn) [Zileuton] (max dose 10000 nM)	1.82	0	0	0	0	0	3.03	0	0.00026	0	0	0	0.412	0	0	0	0
CO[C@H]1/C=C\C=C(/C)C(=O)NC2=CC(=O)C(NCCN(C)C)=C(C[C@@H](C)C[C@H](OC)[C@H](O)[C@@H](C)/C=C(\C)[C@@H]1OC(N)=O)C2=O [17-DMAG (Alvespimycin) HCl] (max dose 10000 nM)	65.4	57.5	10.4	58.1	20.9	35.7	77.9	27.1	29.2	35.1	29.4	48.6	33.6	40.1	36.1	19.9	33
CN[C@@H](C)C(=O)N[C@H]1CN(C(=O)CC(C)C)CC[C@H]2CC[C@@H](C(=O)NC(c3ccccc3)c3ccccc3)N2C1=O [AT406 (SM-406)] (max dose 10000 nM)	4.81	11.8	8.29	28.6	0.436	3.23	18.2	17.9	3.93	18.2	0	1.08	1.8	2.68	0	4.77	0
COc1c(C)c(C(=O)c2ccc(N)c(C(=O)O)c2)n2ccccc12 (max dose 10000 nM)	0	0	0	0	0	0	0	0	0	0	0	0	0	0	0	0	0
CC(C)C[C@H](NC(=O)[C@@H](NC(=O)c1cccc(-c2ccccc2)n1)[C@@H](C)O)B(O)O (max dose 10000 nM)	64.4	71.3	56.8	63.6	60.5	10.7	51.6	77.6	60.3	51.2	55.1	53.6	49.8	20.2	48.6	41.1	55.1
CC1(C)CNc2cc(NC(=O)c3cccnc3NCc3ccncc3)ccc21 [Motesanib Diphosphate (AMG-706)] (max dose 10000 nM)	0.156	3.25	0	0	0	0.964	0	1.89	0.0487	0.718	0	0	0	3.24	0	0	0

Two consecutive entries already listed:
SMILES	drug sensitivity score DSS3 5637	drug sensitivity score DSS3 (BC8149)	drug sensitivity score DSS3 (J82)	drug sensitivity score DSS3 (SCaBER)	drug sensitivity score DSS3 (SW780)	drug sensitivity score DSS3 (T-24)	drug sensitivity score DSS3 (TCCSUP)	drug sensitivity score DSS3 (UM-UC-12)	drug sensitivity score DSS3 (UM-UC-14)	drug sensitivity score DSS3 (UM-UC-15)	drug sensitivity score DSS3 (UM-UC-17)	drug sensitivity score DSS3 (UM-UC-18)	drug sensitivity score DSS3 (UM-UC-1)	drug sensitivity score DSS3 (UM-UC-3)	drug sensitivity score DSS3 (UM-UC-5)	drug sensitivity score DSS3 (UM-UC-6)	drug sensitivity score DSS3 (UM-UC-9)
COc1cc2c(cc1O)CC[C@@H]1[C@@H]2CC[C@]2(C)[C@@H](O)CC[C@@H]12 [2-Methoxyestradiol (2-MeOE2)] (max dose 10000 nM)	20.1	13.5	0.451	0.943	0	0	19.1	10	0.0912	0	3.61	5.18	4.62	23.1	13.9	0.211	4.19
C[C@H](Nc1ncnc2[nH]cnc12)c1cc2ccc(F)cc2nc1-c1ccccn1 [AMG319] (max dose 10000 nM)	2.17	0	3.33	4.93	4.17	17	3.33	0.632	1.11	0	0.223	0	1.29	6.81	1.28	0.846	0
